Results deposited as PubChem BioAssay AID504804 (Drosophila RNAi Screening Center, 2011).
The screen tested about 19,000 reagents; below is a random part of those that have a named target and a result. In the full data, 47 (0.25%) got an active call. 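Signals are raw, not normalised; exact z-scores behind calls not deposited; actives needed confirmation, so some wells reaching 2 SD are inactive.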 Entries without a mark were called inactive. A plus sign joins genes that one reagent is predicted to hit.

- Assay: 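Fly genes whose loss lessens doxorubicin-driven cell death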 (primary screen)
- Cells: Drosophila Kc cells
- Reagents: long dsRNA against Drosophila genes, 0.5 µg dsRNA per well
- Timing: 96 h (48 h knock-down, then 48 h drug)
- Conditions: doxorubicin 5 µg/ml for 48 h, added 48 h after dsRNA
- Detection: 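Viability measured as cellular ATP by luminescence after 48 h knock-down then 48 h doxorubicin at 5 µg/ml; unnormalised plate counts for each replicate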
- Reading the numbers: raw ATP luminescence: higher = more viable cells, protection from doxorubicin
- Hit rule: 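z-score of 2 or more over plate mean in both duplicates, retained only when retests and separate dsRNAs confirm the protection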

| Gene | DRSC id | raw ATP luminescence, replicate 1 | raw ATP luminescence, replicate 2 |
| --- | --- | --- | --- |
| Wdfy2 | DRSC02822 | 95813 | 70213 |
| CG7715 | DRSC16301 | 63940 | 81450 |
| CG4328 | DRSC10410 | 35693 | 34860 |
| Acadvl | DRSC07022 | 63447 | 76757 |
| gfzf | DRSC12506 | 46833 | 31350 |
| TwdlJ | DRSC15812 | 33040 | 44050 |
| Raf | DRSC18821 | 42520 | 59120 |
| Ugt302C1 | DRSC15353 | 48047 | 23240 |
| CG10761 | DRSC17753 | 29030 | 45570 |
| Mcad | DRSC09871 | 28437 | 28773 |
| CG3492 | DRSC04373 | 67697 | 50140 |
| CR31822 | DRSC01510 | 2.99e5 | 2.38e5 |
| Cmtr1 | DRSC18400 | 23910 | 37700 |
| LpR1 | DRSC15669 | 69870 | 75790 |
| LpR1 | DRSC15670 | 58690 | 53640 |
| Ccdc114 | DRSC15025 | 1.08e5 | 61310 |
| Pvr | DRSC03080 | 43527 | 38033 |
| goe | DRSC19345 | 3.16e5 | 3.21e5 |
| Psf1 | DRSC08638 | 73840 | 38497 |
| Kdm4B | DRSC06862 | 53083 | 52860 |
| CG9471 | DRSC16499 | 65213 | 54517 |
| CG16976 (retired record) | DRSC08262 | 51097 | 54960 |
| CG34236 | DRSC05435 | 79970 | 84100 |
| DIP-iota | DRSC02140 | 29423 | 29713 |
| Lsp1alpha | DRSC20258 | 2.86e5 | 1.77e5 |
| CG14731 | DRSC14952 | 51970 | 53693 |
| Dora | DRSC19614 | 2.83e5 | 2.41e5 |
| Dora | DRSC19781 | 3.62e5 | 2.80e5 |
| Dora | DRSC20034 | 3.48e5 | 2.95e5 |
| Dora | DRSC20035 | 2.72e5 | 2.18e5 |
| CG2200 | DRSC19840 | 2.94e5 | 2.94e5 |
| CG7379 | DRSC16237 | 45533 | 34173 |
| Ns2 | DRSC06993 | 77670 | 53837 |
| Acp53C14c | DRSC05626 | 1.70e5 | 1.43e5 |
| CG3397 | DRSC15487 | 80777 | 38220 |
| ppk | DRSC03595 | 41120 | 52503 |
| alpha-Est9 | DRSC12621 | 62737 | 44943 |
| CG13623 | DRSC14625 | 22690 | 20120 |
| Arpc3A | DRSC15596 | 64820 | 55790 |
| Lcp4 | DRSC07458 | 43987 | 65673 |
| nonA | DRSC20357 | 2.55e5 | 2.35e5 |
| CG32085 | DRSC10138 | 81073 | 63437 |
| CG32085 | DRSC10139 | 64320 | 56783 |
| CG32085 | DRSC10576 | 60030 | 62013 |
| CG9801 | DRSC16568 | 65363 | 22963 |
| Cdc23 | DRSC02708 | 78407 | 89947 |
| Lime | DRSC06752 | 39723 | 68963 |
| Dnaaf5 | DRSC13032 | 2.31e5 | 2.06e5 |
| Rab23 | DRSC12305 | 71913 | 63930 |
| Tollo | DRSC11305 | 44963 | 36210 |
| tweek | DRSC02433 | 66740 | 67340 |
| tweek | DRSC02434 | 59090 | 62380 |
| tweek | DRSC02785 | 50213 | 50533 |
| CG15201 | DRSC19648 | 3.81e5 | 3.74e5 |
| Rab39 | DRSC17827 | 40320 | 43910 |
| CG13836 (retired record) | DRSC14686 | 66150 | 64430 |
| brv2 | DRSC10226 | 43640 | 40837 |
| Adgf-A | DRSC10566 | 38163 | 28357 |
| RpL35A | DRSC12302 | 46060 | 43517 |
| Vps39 | DRSC16205 | 40867 | 35597 |
| TbCMF46 | DRSC02221 | 42847 | 56573 |
| Taldo | DRSC04320 | 62917 | 58703 |
| CG4408 | DRSC15574 | 36917 | 35630 |
| CG15602 | DRSC19671 | 3.29e5 | 2.81e5 |
| RpS8 | DRSC16318 | 31890 | 24640 |
| grim | DRSC11352 | 48327 | 41043 |
| nrm | DRSC11597 | 63200 | 53347 |
| nrm | DRSC11599 | 65597 | 60823 |
| nrm | DRSC11897 | 69633 | 73933 |
| js | DRSC15004 | 83710 | 66810 |
| CG6040 | DRSC15954 | 41703 | 52170 |
| Ucp4B | DRSC02665 | 32913 | 40077 |
| Cyp28c1 | DRSC20236 | 3.73e5 | 3.41e5 |
| CG8490 | DRSC07194 | 80923 | 52773 |
| Non2 | DRSC08272 | 71597 | 55797 |
| SmydA-5 | DRSC04867 | 38747 | 47963 |
| CG32054 | DRSC10684 | 49507 | 70367 |
| CG11413 + CG4622 | DRSC04109 | 97683 | 56017 |
| nsl1 | DRSC15625 | 43537 | 40963 |
| B52 | DRSC14121 | 48507 | 25483 |
| Ilp8 | DRSC10076 | 58193 | 57123 |
| CG11298 | DRSC04100 | 83800 | 40270 |
| His-Psi:CR31616 + His-Psi:CR31615 | DRSC03760 | 50343 | 47580 |
| mRpL54 | DRSC04545 | 73110 | 50940 |
